Series [1] has as its system THC.5B7 (B7) anti-THC antibody in complex with 11-hydroxy-THC (HTHC). Description: ELONA. The following applies: purified recombinant protein, protein details: Bioventix, single-stranded DNA.
Series [2] has the same test system. Description: binding assay. Particulars: purified recombinant protein, protein details: Bioventix, immunocomplex with HTHC, single-stranded DNA.
Series [3] has as its system THC.5B7 (B7) anti-THC antibody in complex with THC. Description: binding assay. The following applies: minimal binding to B7-THC complex by qPCR; purified recombinant protein; protein details: Bioventix, immunocomplex with THC; single-stranded DNA. In general terms: Quantitative PCR measures a nucleic acid by following its amplification.
The subject of series [4] is THC.5B7 (B7) anti-THC antibody, no analyte. Kind of series: binding assay. Particulars: minimal binding by qPCR; residual background binding to antibody alone; purified recombinant protein; protein details: Bioventix; single-stranded DNA.
In series [5] the test system is THC2.B9 (B9) anti-THC antibody (with or without HTHC). Kind of series: binding assay. The following applies: aptamer stated to differentiate B7 from the similar antibody bound to HTHC; purified recombinant protein; protein details: Bioventix; single-stranded DNA.
[6] abbreviates: group statement: nearly all aptamers detect immunocomplex at ug/mL HTHC, label: 5' biotin, variant of B7C4 (B7HC4).

The exact form of at least one protein or probe is not confirmed. For some of these results: A weaker result is weaker than the reference pair of the same experiment.

In the case of “CCTGTCAGTTGCTTACCGGCCACGAGTACGAGACTGCAGGATTCTTCTACACTGCCCCCCATGTAGTGTCCTTGCTCGT [732]”, the binding result in series [1] (setting [6]) is “binds”.
Take “CCTGTCAGTTGCTTACCGGCCCAGGTGTAGTAACTGCAGGGATTCTTAACGTAGCTACCGGGTGTAGTGTCCTTGCTCGT [154]”: the binding result in series [1] (group statement: nearly all aptamers detect immunocomplex at ug/mL HTHC, label: 5' biotin) is “binds”.
In the case of “CCTGTCAGTTGCTTACCGGCCCAGGTGTAGTAACTGCAGGGATTCTTAACGTAGCTACCGGGTGTAGTGTCCTTGCTCGT [B7C1 (B7HC1)]”, in series [2] (capillary electrophoresis peak shift, not well separated from bulk DNA), the binding result was “binds”.
Consider “CCTGTCAGTTGCTTACCGGGCACGAGTACGAGACTGCAGGATTCTTCTACACTGCACCCCATGTAGTGTCCTTGCTC [493]”, for which the binding result in series [1] (better sensitivity in simultaneous than separate incubation, immunocomplex with HTHC, label: 5' …, variant of B7C4 (B7HC4)) is reported as “binds”.
For “CCTGTCAGTTGCTTACCGGGCACGAGTACGAGACTGCAGGATTCTTCTACACTGCCCCACATGTAGTGTCCTTGCTCGT [550]”, in series [1] (setting [6]), the binding result was “binds”.
On the same count and under the same terms, in the case of “CCTGTCAGTTGCTTACCGGGCACGAGTACGAGACTGCAGGATTCTTCTACACTGCCCCCCATGTAGTGTCCTTGCTCGT [368 (B7C4)]” it was “binds”.
On to “CCTGTCAGTTGCTTACCGGGCACGAGTACGAGACTGCAGGATTCTTCTACACTGCCCCCCATGTAGTGTCCTTGCTCGT [B7C4 (B7HC4)]”, for which the binding result in series [3] is reported as “binds more weakly”; in series [4], “binds more weakly”; in series [2] (immobilised immune complex, bound aptamer quantified by qPCR) it was “binds”; in series [5], “binds more weakly”.
In the case of “CCTGTCAGTTGCTTACCGGGCACGAGTACGAGACTGCAGGATTCTTCTACACTGCCCCCCATGTAGTGTCCTTGCTCGTGTAGTGTCCTTGCTCGT [333]”, in series [1] (setting [6]), the binding result is reported as “binds”.
On to “CCTGTCAGTTGCTTACCGGGCACGAGTACGAGACTGCAGGATTCTTCTACACTGCGCCCCATGTAGTGTCCTTGCTCGT [444]”, for which the binding result in series [1] (high sensitivity in separate incubation, reduced in simultaneous, immunocomplex with HTHC, label: 5' biotin, variant of B7C4 (B7HC4)) is reported as “binds”.
As to “CCTGTCAGTTGCTTACCGGGCACGAGTACGAGACTGCAGGATTCTTCTACACTGCTCCCCATGTAGTGTCCTTGCTCGT [368.2]”, the binding result in series [1] (significant binding in both separate and simultaneous incubation, immunocomplex with HTHC, label: 5' biotin, variant of B7C4 (B7HC4)) is on record as “binds”.
Regarding “CCTGTCAGTTGCTTACCGGGCACGAGTACGAGACTGCAGGATTCTTCTACACTGGCCCCCATGTAGTGTCCTTGCTCGT [489]”, the binding result in series [1] (setting [6]) was “binds”.
For “CCTGTCAGTTGCTTACCGGGCACGAGTACGAGACTGCAGGATTCTTTTACACTGCCCCCCATGTAGTGTCCTTGCTCGT [568]”, the binding result in series [1] (setting [6]) is recorded as “binds”.
With “CCTGTCAGTTGCTTACCGGGCACGAGTACTAGACTGCAGGATTCTTCTACACTGCCCCCCATGTAGTGTCCTTGCTCGT [815]”, the binding result in series [1] (high binding in separate incubation, lost in simultaneous, immunocomplex with HTHC, label: 5' biotin, variant of B7C4 (B7HC4)) is “binds”.
